No constants are given. Whether binding was seen depends on the method and setting. In cells and extracts the contact can be indirect. Some entries that bind do so weakly or less than the wild type. For some assays here: Where a sequence is shown, tags or fusion partners need not be part of it.
Tests used:
[1] = target: acetylcholine receptor CHRM3 (UniProt P20309); test: co-IP; Syt1 co-immunoprecipitated with CHRM3 (Fig. S4C); set-up of this experiment not told in the text shown
[2] = target: T1, Rho-tagged Or1ad1 (mouse) (UniProt Q8VGH1); test: co-IP; Rho-tagged Or1ad1 precipitated with anti-Rho antibody (Rho4D2) and Protein A/G magnetic beads from HEK293T lysate (50 mM Tris-HCl, 150 mM NaCl, 1% NP-40); Rtp1s, Gfy, Clgn and Syt1 cotransfected; washes in 0.5% NP-40 buffer; Western blot with anti-Syt1
T1 sequence: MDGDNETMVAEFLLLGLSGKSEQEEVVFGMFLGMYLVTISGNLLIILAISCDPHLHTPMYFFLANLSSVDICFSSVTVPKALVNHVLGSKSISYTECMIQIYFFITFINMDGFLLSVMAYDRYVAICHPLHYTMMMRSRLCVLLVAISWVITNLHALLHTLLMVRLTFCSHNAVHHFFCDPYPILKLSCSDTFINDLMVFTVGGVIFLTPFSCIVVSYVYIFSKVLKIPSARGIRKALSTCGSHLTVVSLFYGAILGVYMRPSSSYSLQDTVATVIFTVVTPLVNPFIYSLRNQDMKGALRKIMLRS

The chains behind the UniProt entries cited, without tags or fusion partners.
UniProt P20309: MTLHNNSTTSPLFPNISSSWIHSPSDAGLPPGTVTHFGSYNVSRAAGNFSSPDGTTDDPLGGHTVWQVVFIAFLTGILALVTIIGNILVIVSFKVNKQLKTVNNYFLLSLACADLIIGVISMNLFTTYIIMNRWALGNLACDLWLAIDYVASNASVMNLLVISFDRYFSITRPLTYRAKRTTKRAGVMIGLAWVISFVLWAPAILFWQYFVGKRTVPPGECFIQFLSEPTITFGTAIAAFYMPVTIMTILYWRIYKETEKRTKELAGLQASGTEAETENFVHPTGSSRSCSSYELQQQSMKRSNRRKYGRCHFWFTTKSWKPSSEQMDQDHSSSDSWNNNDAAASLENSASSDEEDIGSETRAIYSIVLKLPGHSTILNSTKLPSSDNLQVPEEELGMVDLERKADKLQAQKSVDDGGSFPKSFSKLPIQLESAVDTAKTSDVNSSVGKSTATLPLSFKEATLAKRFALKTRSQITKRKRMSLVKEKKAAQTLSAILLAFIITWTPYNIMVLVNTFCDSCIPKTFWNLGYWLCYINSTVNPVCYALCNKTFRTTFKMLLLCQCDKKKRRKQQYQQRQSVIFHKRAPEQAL
UniProt P46096: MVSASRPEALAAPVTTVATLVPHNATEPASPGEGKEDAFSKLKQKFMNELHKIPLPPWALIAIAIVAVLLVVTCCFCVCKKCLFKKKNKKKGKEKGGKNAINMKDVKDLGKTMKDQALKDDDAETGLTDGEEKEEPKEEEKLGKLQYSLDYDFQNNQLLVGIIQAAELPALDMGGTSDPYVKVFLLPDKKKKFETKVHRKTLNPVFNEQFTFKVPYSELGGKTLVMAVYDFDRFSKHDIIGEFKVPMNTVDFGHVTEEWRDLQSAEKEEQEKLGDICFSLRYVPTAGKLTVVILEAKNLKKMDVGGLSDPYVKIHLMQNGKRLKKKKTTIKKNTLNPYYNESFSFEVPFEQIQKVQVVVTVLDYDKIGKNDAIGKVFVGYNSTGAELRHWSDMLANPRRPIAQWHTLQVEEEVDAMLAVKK

- binding [1]: binds
- binding [2]: binds
Substance: Synaptotagmin 1 (Syt1) (from UniProt P46096 1-421)
